# Data as given in PubChem BioAssay AID445 (National Center for Advancing Translational Sciences (NCATS), 2006).
# Where “and” joins values, the source holds several entries; their conditions need not be identical. Equal values may be shown once. Some of the results follow. Further columns of the screen follow, without active or inactive calls. Most of these compounds were active or inconclusive in the main read-out, so they are no random draw. Potencies come from curve fits of mixed quality, noted in brackets.
# Assay: IkB Signaling
# Conditions: ABC-DLBCL IkBa-CBG/CBR dual luciferase ratio (green luciferase fused to IkBa over red control in OCI-Ly3 lymphoma cells), 4 h
# How it was run: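 Curves were fitted separately to fusion (green), unfused (red) and ratio luminescence, then classed by r2, magnitude and activity. Cells: OCI-Ly3, 4 h compound plus doxycycline at 37C; 10 uM MG-132 defined full response.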
# [1] = measured here: control luc red channel unless noted
# [2] = measured here: IkB-luc green channel
# [3] = measured here: control luc red channel
smiles,measurement,setting,value
Cc1cc(C)n(-c2nnc(Nc3ccc(C)c(Cl)c3)c3ccccc23)n1,AC50,[1],"25.1 µM [falling, partial curve]"
COc1ccc(C2=NC(C)(C)N(CC(=O)Nc3cccc(C)c3)C2=O)cc1,AC50,[1],"12.6 µM [falling, partial curve]"
COc1ccc(Cn2c(C(=O)O)c(CNCCc3cc(OC)ccc3OC)c3ccc(C)cc32)cc1,AC50,[1],"25.1 µM [falling, partial curve, poor fit]"
CN(C)C(=O)c1c(NC(=O)c2ccccc2F)sc2c1CCCC2,AC50,[1],"39.8 µM [falling, single point]"
CCCC(=O)Nc1cccc(NC(=O)c2ccc3c(c2)OCCO3)c1,AC50,[1],"3.98 µM [falling, partial curve]"
Cc1ccc(S(=O)(=O)Nc2nc3n(n2)C(c2ccc(F)cc2)C=C(c2ccccc2)N3)cc1 (stereo not drawn),AC50,[1],"39.8 µM [falling, single point]"
CC1=C(C(=O)Nc2ccc(Cl)cc2)C(CC(C)C)n2nc(SCc3ccccc3C)nc2N1 (stereo not drawn),AC50,[1],"15.8 µM [falling, partial curve, poor fit]"
CCCCOc1cccc(C(=O)N(Cc2ccc(C)o2)c2ccccn2)c1,AC50,[1],"12.6 µM [falling, partial curve]"
CCOc1ccc(CCNC(=O)c2cnc3sc(N4CCCC4)nn3c2=O)cc1,AC50,[1],"20 µM [falling, partial curve]"
CCOC(=O)Cn1c(=O)oc2cc(S(=O)(=O)NCC3CCCO3)ccc21 (stereo not drawn),AC50,[1],"10 µM [falling, partial curve]"
CCOC(=O)Cc1csc(NC(=O)c2cccs2)n1,AC50,[1],"12.6 µM [falling, partial curve]"
Cc1onc(-c2c(F)cccc2Cl)c1C(=O)OCn1nnc2ccccc2c1=O,AC50,[1],"0.316 µM [falling, full curve]"
COc1ccc(NS(=O)(=O)c2ccc3[nH]c4c(c3c2)CCCC4)cc1OC,AC50,[1],"20 µM [falling, single point]"
Cc1cc(N)c(NC2=CC(=O)CC(C)(C)C2)cc1C,AC50,[1],"20 µM [falling, partial curve]"
CCn1c(CN2CCCCC2)nc2cc(NC(=O)c3cc(OC)c(OC)c(OC)c3)ccc21,AC50,[1],"31.6 µM [falling, partial curve]"
COc1ccc(Nc2c3c(nc4ccc(NC(=O)c5ccc(F)cc5)cc24)CCCC3)cc1OC,AC50,[1],"15.8 µM [falling, partial curve]"
Cc1ccc(Cl)cc1N1CCN(CCCNC(=O)c2ccc3nc(N4CCCCC4)sc3c2)CC1,AC50,[1],"12.6 µM [falling, partial curve]"
O=C(CSc1cccc2cccnc12)N1CCCC1,AC50,[1],"3.98 µM [rising, full curve] [measured here: IkB-luc green channel]"
O=C(NC1(C(F)(F)F)NC(=O)N(CCc2ccccc2)C1=O)c1ccc(Cl)cc1 (stereo not drawn),AC50,[1],"15.8 µM [falling, partial curve]"
Oc1c(C(c2ccccc2)N2CCC(O)CC2)sc2nc(-c3ccco3)nn12 (stereo not drawn),AC50,[1],"3.16 µM [rising, full curve]"
CCOc1ccccc1CNc1nc2nc(C)cc(C)n2n1,AC50,[1],"1.26 µM [falling, single point]"
O=C(NCCCN1CCN(c2ccccc2)CC1)c1ccc2nc(Cc3ccccc3)oc2c1,AC50,[1],"10 µM [falling, partial curve, poor fit]"
Cc1ccc(Cn2c(C(C)NC(=O)c3ccccc3)nc3ccccc32)cc1 (stereo not drawn),AC50,[1],"20 µM [falling, single point]"
COc1cc(C(c2sc3nc(C)nn3c2O)N2CCN(c3ccccc3)CC2)cc(OC)c1OC (stereo not drawn),AC50,[1],"10 µM [falling, partial curve]"
Cc1noc(C)c1S(=O)(=O)N1CCC(C(=O)N2CCN(c3cccc(C(F)(F)F)c3)CC2)CC1,AC50,[1],"25.1 µM [falling, partial curve]"
CCC1CCCCN1C(=O)CSc1nc2c([nH]c3ccccc32)c(=O)n1-c1ccc(OC)cc1 (stereo not drawn),AC50,[1],"20 µM [falling, single point]"
Cc1cccc(Cn2cccc2CNS(=O)(=O)c2ccc(Br)cc2)c1,AC50,[1],"12.6 µM [falling, partial curve]"
COc1cc(-c2nnc(SCCOc3cc(C)cc(C)c3)o2)cc(OC)c1OC,AC50,[1],"3.16 µM [rising, partial curve]"
O=C(c1cc2nc(-c3ccco3)cc(C(F)(F)F)n2n1)N1CCN(c2ccc(F)cc2)CC1,AC50,[1],"31.6 µM [falling, single point]"
COc1ccc(NC(=O)c2cccs2)cc1O,AC50,[1],"15.8 µM [falling, partial curve]"
COc1ccc(S(=O)(=O)Nc2cc(S(=O)(=O)c3ccccc3)c(O)c(C)c2C)cc1,AC50,[1],"2.51 µM [falling, full curve]"
COC(=O)C(C)N(C#N)c1nc(C)nc(C)n1 (stereo not drawn),AC50,[1],"12.6 µM [falling, partial curve]"
Cc1cc(OC(C)C(=O)Nc2sc3c(c2C(N)=O)CCCC3)ccc1Cl (stereo not drawn),AC50,[1],"12.6 µM [rising, partial curve, poor fit]"
CCOC(=O)N1CCN(S(=O)(=O)c2ccc(OC)c3ccccc23)CC1,AC50,[1],"12.6 µM [falling, partial curve]"
COc1ccc(OC)c(NC(=O)CN(c2ccc(C)cc2)S(=O)(=O)c2c(C)noc2C)c1,AC50,[1],"12.6 µM [falling, partial curve]"
COc1cccc(-c2nc(S(=O)(=O)c3ccc(C)cc3)c(N3CCCCC3)o2)c1,AC50,[1],"39.8 µM [falling, single point]"
Nc1c(Nc2ccccc2)c2ccccc2oc1=O,AC50,[1],"39.8 µM [falling, single point]"
CCOC(=O)c1c(C)oc2ncnc(Nc3ccc(OC)c(OC)c3)c12,AC50,[1],"6.31 µM [rising, full curve]"
CCOC(=O)c1ccccc1NC(=O)CSc1nccn1Cc1ccco1,AC50,[1],"31.6 µM [falling, single point]"
CC(C)Oc1ccc(C(=O)N(Cc2ccco2)Cc2cccs2)cc1,AC50,[1],"31.6 µM [falling, single point]"
Cc1cccc(C)c1NC(=O)c1sc(-n2nc(C)c(Cc3ccccc3)c2C)nc1C,AC50,[1],"0.1 µM [falling, full curve, poor fit]"
O=C(CSc1ncc(S(=O)(=O)c2ccc(Cl)cc2)c(=O)[nH]1)Nc1cccc(C(F)(F)F)c1,AC50,[1],"5.01 µM [falling, partial curve]"
Cc1cc(OCC(=O)N(Cc2ccc(N(C)C)cc2)CC2CCCO2)ccc1Cl (stereo not drawn),AC50,[1],"15.8 µM [falling, partial curve]"
CC(C)c1ccc2oc(-c3ccc(N)cc3)nc2c1,AC50,[1],"0.0631 µM [falling, full curve]"
COc1ccc(-c2cc3nc(C)c(CCC(=O)NC4CCCCC4)c(C)n3n2)c(OC)c1,AC50,[1],"1.26 µM [falling, full curve]"
CCC(c1nnnn1C(C)(C)CC)N(CCCO)Cc1cc2cccc(C)c2[nH]c1=O (stereo not drawn),AC50,[2],"39.8 µM [rising, single point]"
same,AC50,[3],"20 µM [falling, partial curve]"
COc1ccc(C2CC(=O)c3cc(-c4nc(-c5ccc(Cl)cc5)cs4)c(=O)[nH]c3C2)cc1OC (stereo not drawn),AC50,[1],"7.94 µM [falling, partial curve]"
CCn1cc(C(=O)N2CCN(c3cccc(C)c3C)CC2)c2cc(OC)c(OC)cc2c1=O,AC50,[1],"39.8 µM [falling, single point]"
Cc1ccccc1C(=O)n1nc(-c2cccnc2)nc1NCc1ccccc1,AC50,[1],"0.2 µM [falling, full curve, poor fit]"
CCOC(=O)c1sc2nc(-c3ccco3)c3c(c2c1N)CC(C)(C)OC3,AC50,[1],"12.6 µM [falling, partial curve]"
Cc1ccc(CNC(=O)CCS(=O)(=O)c2cc(Br)cc3c2N(C(=O)C2CC2)CC3)cc1,AC50,[1],"31.6 µM [falling, single point]"
COc1cc2c(c(OC)c1OC)-c1ccc(OC)c(=O)cc1[C@@H](NC(C)=O)CC2,AC50,[2],"12.6 nM [rising, full curve] and 20 nM [rising, full curve]"
same,AC50,[3],"6.31 µM [rising, partial curve] and 12.6 nM [rising, full curve] and 15.8 nM [rising, full curve]"
CC(C)[C@H](CO)Nc1nc(Nc2cc(N)cc(Cl)c2)c2ncn(C(C)C)c2n1,AC50,[1],"0.631 µM [falling, full curve]"
COc1ccccc1CCNC(=O)C(=O)NCC(c1ccco1)S(=O)(=O)c1ccc(C)cc1 (stereo not drawn),AC50,[1],"39.8 µM [falling, single point]"
Cc1cc(C)c(S(=O)(=O)NCC(c2cccs2)S(=O)(=O)c2ccccc2)c(C)c1 (stereo not drawn),AC50,[1],"31.6 µM [rising, single point] [measured here: IkB-luc green channel]"
Cc1ccc(NCc2nc3ccccc3n2CCOc2ccccc2)cc1,AC50,[1],"3.98 µM [falling, partial curve]"
CCCOc1cccc(C(=O)Nc2cccc(NC(=O)c3ccco3)c2)c1,AC50,[1],"5.01 µM [falling, partial curve]"
COc1ccccc1Nc1cc(C(=O)NCc2cccs2)c2ccccc2n1,AC50,[1],"7.94 µM [falling, partial curve]"
Clc1ccc(-c2nnc(NC3=NCCCCC3)o2)cc1,AC50,[1],"0.0398 µM [falling, full curve]"
Cc1nc(-c2ccccc2)sc1CCNS(=O)(=O)c1ccc(Br)cc1,AC50,[1],"20 µM [falling, partial curve]"
O=C1c2ccccc2-c2n[nH]c3cccc1c23,AC50,[1],"39.8 µM [falling, partial curve, poor fit] [measured here: IkB-luc green channel]"

# Reprinted at random: 2 records from the list
smiles,measurement,setting,value
CCCOc1cccc(C(=O)Nc2cccc(NC(=O)c3ccco3)c2)c1,AC50,[1],"5.01 µM [falling, partial curve]"
CCOC(=O)c1c(C)oc2ncnc(Nc3ccc(OC)c(OC)c3)c12,AC50,[1],"6.31 µM [rising, full curve]"
